SMILES strings stand for the structures. Several values for one entry are separate records, joined by “and”; a condition that tells them apart may be missing. Identical values can stand only once. Some of the results follow. The main result of the screen is listed elsewhere. These columns were measured beside it and carry no call. The list favours compounds with an active or inconclusive main result. The note in brackets gives the kind of curve behind each potency; many fits are weak.

By AC50 is commonly meant the concentration giving half of the maximal activity seen.

A short description of the experiment: IkB Signaling. The following applies: ABC-DLBCL IkBa-CBG/CBR dual luciferase ratio (green luciferase fused to IkBa over red control in OCI-Ly3 lymphoma cells), 4 h. In short, it runs like this: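 Luminescence ratio of IκBα-fused green versus native red beetle luciferase in OCI-Ly3 cells, 4 h post-doxycycline with compound; red signal alone, scaled from basal (0%) to zero light (-100%), flagged nonspecific or cytotoxic effects.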
[1] abbreviates: measured here: control luc red channel unless noted.
[2] abbreviates: measured here: IkB-luc green channel.
[3] abbreviates: measured here: control luc red channel.

Take `COc1ccccc1NC(=O)CC1C(=O)Nc2c1c(=O)n(C)c(=O)n2C` (stereo not drawn): under setting [1], the AC50 is 10 µM [falling, partial curve].

Regarding `CCOc1ccc(NC(=O)C(C)SC(N)=O)cc1` (stereo not drawn), the AC50 is, setting by setting: under setting [2], 7.94 µM [rising, full curve]; under setting [3], 5.01 µM [rising, full curve, poor fit]. In the case of `Cc1ccc(-n2ncc(C(=O)NCCN3CCc4ccccc4C3)c2C2CCN(C(=O)OC(C)(C)C)CC2)c(C)c1`, the AC50 under setting [1] is 31.6 µM [falling, single point]. In the case of `Cc1oc(-c2ccc(Cl)cc2)nc1CN1CCCC(C(=O)NCc2cccnc2)C1` (stereo not drawn), the AC50 under setting [1] was 10 µM [falling, partial curve]. With `Cc1ccc2nc(-c3ccc(N4CCOCC4)cc3)c(Nc3ccccc3C)n2c1`, under setting [1], the AC50 is 39.8 µM [falling, single point]. As to `COc1ccc(-n2c(COc3cccc(C)c3)nnc2SCC(=O)NCc2ccco2)cc1`, under setting [1], the AC50 was 15.8 µM [falling, partial curve]. For the compound `O=S1(=O)C=C(Sc2nc3cc(Cl)ccc3o2)c2ccccc21`, the AC50 was 3.16 µM [rising, partial curve] under setting [2] and 3.98 µM [falling, partial curve] under setting [3]. Turning to `Cc1cccc(C(=O)NCc2nnc(SCC(=O)Nc3ccccc3F)n2-c2ccccc2)c1`, the AC50 under setting [1] was 20 µM [falling, single point].

On to `COc1ccc(Cl)cc1C(=O)NCC(c1ccco1)N1CCCC1` (stereo not drawn), for which the AC50 under setting [1] was 6.31 µM [falling, partial curve].

As for `CC(=O)N1c2ccc(S(=O)(=O)NCC3CCC(C(=O)Nc4cccc(F)c4)CC3)cc2CC1C` (stereo not drawn), the AC50 under setting [1] was 15.8 µM [falling, partial curve]. In the case of `COc1ccccc1Nc1nn2c(=O)c3ccc(C(=O)NC4CCCCC4)cc3nc2s1`, under setting [1], the AC50 was 0.1 µM [rising, full curve]. On the same count and under the same terms, the figure for `O=C(c1ccccc1)n1nc(-c2ccccc2)nc1NCc1ccco1` is 15.8 µM [falling, partial curve]. Turning to `O=C(CSc1nc2ccccc2o1)c1cc2ccccc2oc1=O`, the half-maximal activity concentration (AC50) under setting [1] was 12.6 µM [falling, partial curve]. Consider `CCOC(=O)N1CCc2c(sc(NCc3ccc(N(C)C)cc3)c2C(=O)Nc2ccccc2OCC)C1`, for which the AC50 under setting [1] is 10 µM [falling, partial curve]. Same read-out and setting: with `Nc1ccc2nc(-c3ccc(Cl)cc3)[nH]c2c1` the figure was 15.8 µM [falling, partial curve]; with `COc1cccc(C2C=C(c3ccc(C)cc3)Nc3c(C(=O)Nc4ccc(F)cc4)cnn32)c1OC` (stereo not drawn), 20 µM [falling, single point].

Consider `CC(C)(C)c1cc(CNC2CS(=O)(=O)C[C@@H]2O)cc(C(C)(C)C)c1O` (stereo partly drawn), for which the AC50 under setting [1] is 12.6 µM [falling, partial curve]. Turning to `COc1ccc(CN(C(=O)c2ccc(OCC(C)C)cc2)C2CCS(=O)(=O)C2)cc1` (stereo not drawn), under setting [1], the concentration at half-maximal activity (AC50) is 7.94 µM [falling, partial curve].

Regarding `COc1ccc(CCNC(=O)CCCCn2c(=O)c3ccccc3n(Cc3cccc(C)c3)c2=O)cc1OC`, the concentration at half-maximal activity (AC50) under setting [1] was 39.8 µM [falling, single point]. Turning to `Cc1nc2ncnn2c(N2CCN(c3cccc(C(F)(F)F)c3)CC2)c1C`, under setting [1], the AC50 was 15.8 µM [falling, partial curve]. As to `CCOc1ccc(CCNc2ncnc3onc(C)c23)cc1OCC`, the AC50 under setting [1] is 15.8 µM [falling, partial curve, poor fit]. In the case of `O=c1oc(Cl)c(Cl)c2ccccc12`, the AC50 runs as follows: under setting [2], 7.94 µM [rising, partial curve]; under setting [3], 25.1 µM [falling, partial curve]. In the case of `CC(=Nc1ccc(O)cc1)c1sc2ccccc2c1O`, under setting [1], the AC50 is 20 µM [falling, partial curve]. In the case of `CCCCN(C)c1nc(-c2ccco2)c2c(c1C#N)CC(C)(C)OC2`, the AC50 runs as follows: under setting [2], 31.6 µM [falling, partial curve]; under setting [3], 15.8 µM [falling, partial curve].

As for `Cc1cc(N2CCCCC2)n2ncc(-c3ccc(Cl)cc3)c2n1`, the concentration at half-maximal activity (AC50) under setting [1] is 0.0251 µM [falling, full curve]. Take `CCc1ccc(NC(=O)c2ccc(CNS(=O)(=O)c3ccc4c(c3)C(C)(C)C(=O)N4C)cc2)cc1`: the AC50 under setting [1] was 7.94 µM [falling, single point]. As to `CC1=C(\C=C/C(C)=C/C=C\C(C)=C\C(=O)O)C(C)(C)CCC1`, the AC50 under setting [1] is 10 nM [rising, full curve, poor fit] [measured here: IkB-luc green channel] and 3.98 µM [rising, partial curve] [measured here: IkB-luc green channel]. On to `CCOC(=O)c1cc(-c2cc3ccccc3o2)n[nH]1`, for which the AC50 under setting [1] was 20 µM [falling, single point]. On to `COc1cccc2c1Oc1ncccc1N(C(=O)CCC(=O)NCc1ccc(OC(C)C)cc1)C2`, for which the AC50 under setting [1] is 2.51 µM [falling, partial curve, poor fit]. As to `Cc1nn(CC(=O)NC(C)c2ccccc2)c(=O)c2cc3occc3n12` (stereo not drawn), the AC50 under setting [1] is 0.0158 µM [rising, full curve]. For `NC(=O)COc1ccc(-c2noc(COc3ccc(Cl)cc3)n2)cc1`, under setting [1], the AC50 was 0.2 µM [rising, full curve, poor fit]. The same measure, in the same setting: the figure for `COc1ccc2c(c1)CC(C(=O)Nc1c(C)cc(C)cc1C)CO2` (stereo not drawn) is 7.94 µM [falling, partial curve].

`COc1cccc(C(=O)NCC(c2ccc3c(c2)OCO3)N2CCN(C)CC2)c1` (stereo not drawn): the AC50 under setting [2] is 1 µM [rising, partial curve, poor fit] and the AC50 under setting [3] was 0.501 µM [rising, partial curve, poor fit]. `COc1cc(CNCCCSc2nnnn2C)cc(Br)c1OC`: the AC50 under setting [1] was 1 µM [falling, partial curve]. Turning to `CCC(c1nnc(SCc2nc3ccccc3s2)n1Cc1ccccc1)N(C)C` (stereo not drawn), under setting [1], the half-maximal activity concentration (AC50) was 12.6 µM [falling, partial curve]. The same measure, in the same setting: the figure for `O=C(Nc1cccc(F)c1)C1CCN(c2nc3ccccc3nc2C(F)(F)F)CC1` is 25.1 µM [falling, partial curve]. In the case of `CCc1ccc(-c2nc(CN3CCCC(C(=O)NCc4ccccc4Cl)C3)c(C)o2)cc1` (stereo not drawn), under setting [1], the AC50 was 31.6 µM [falling, partial curve]. `COc1ccccc1CNc1ccc(N2CCCCC2)cc1`: under setting [1], the AC50 was 15.8 µM [falling, partial curve].

The values are drawn from PubChem BioAssay AID445 (National Center for Advancing Translational Sciences (NCATS), 2006).
